Experimental data as given in PubChem BioAssay AID652134 (The Scripps Research Institute Molecular Screening Center, 2013).
The entries are a selection whose mix differs from that of the whole data set. The source made the active and inactive calls.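 How the source made its calls: active means inhibition above the average of every tested compound plus 3 SD (cut at about 3.8% in these data); inactive means the rest.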

Protein sequences, listed by entry. Tags and fused reporters are not part of them. Lines headed by an entry give the natural chain unless they say otherwise; changes in a name come on top.
UniProt P51843: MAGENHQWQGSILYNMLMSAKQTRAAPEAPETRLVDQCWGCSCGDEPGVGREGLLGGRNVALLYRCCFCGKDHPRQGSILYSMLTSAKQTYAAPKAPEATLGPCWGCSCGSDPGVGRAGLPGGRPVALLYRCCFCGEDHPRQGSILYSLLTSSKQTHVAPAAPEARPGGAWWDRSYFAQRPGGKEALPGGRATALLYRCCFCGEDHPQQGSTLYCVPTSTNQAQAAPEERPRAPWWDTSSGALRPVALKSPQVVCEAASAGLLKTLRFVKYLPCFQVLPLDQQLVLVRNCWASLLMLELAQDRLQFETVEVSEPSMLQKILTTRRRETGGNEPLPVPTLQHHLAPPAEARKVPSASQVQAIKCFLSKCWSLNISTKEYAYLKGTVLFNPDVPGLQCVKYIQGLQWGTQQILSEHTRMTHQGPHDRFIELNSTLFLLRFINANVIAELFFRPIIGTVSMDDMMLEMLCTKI

Each compound was assayed against Nuclear receptor subfamily 0 group B member 1 (Homo sapiens) (UniProt P51843) (assay: DAX1 (NR0B1) inhibitors relieving SF-1 repression, confirmation, cell-based, luminescence, HEK293T, full-length DAX-1, SF-1 activated StAR promoter (AID 652134;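 further: 0% = DAX-1 cells with DMSO and 100% = no DAX-1 control cells with DMSO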)). Conditions: HEK293T StAR-promoter luciferase reporter, SF-1/DAX-1 repression; at 6.8 µM; stronger effect = higher value.

| Compound | inhibition |
| --- | --- |
| CCOC(=O)NC1CCc2cc(OC)c(OC)c(OC)c2-c2ccc(OC)c(=O)cc21 (configuration not stated) | active: 16.2% |
| O=C(C=Cc1ccccc1)Nc1ccccc1 | active: 12.3% |
